Measured values taken from patent US20250346680A1.
Substitutions are numbered along the chain they refer to. Results are given in words; binding and its absence hold for the method and conditions named. Some entries that bind do so weakly or less than the wild type.

The chains behind the UniProt entries cited, without tags or fusion partners. Residues count along the entry.
UniProt P28908, residues 19-379: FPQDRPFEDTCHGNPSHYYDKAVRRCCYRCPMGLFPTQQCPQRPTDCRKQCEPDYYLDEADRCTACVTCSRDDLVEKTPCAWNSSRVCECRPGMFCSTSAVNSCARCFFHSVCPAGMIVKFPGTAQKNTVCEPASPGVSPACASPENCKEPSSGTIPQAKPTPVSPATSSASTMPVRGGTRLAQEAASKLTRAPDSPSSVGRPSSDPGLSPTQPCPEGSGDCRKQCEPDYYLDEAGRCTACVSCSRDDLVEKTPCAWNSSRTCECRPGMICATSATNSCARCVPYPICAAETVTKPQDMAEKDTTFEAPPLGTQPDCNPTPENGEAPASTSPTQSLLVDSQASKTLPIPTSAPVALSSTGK

B1: monoclonal antibody 12B1 (antibody, V domains shown)
VH: EVKLEESGTELVKPGASVKLSCKASGYTFTSYWMHWVKQRPGQGLEWIGNINPTNGGTNYNEKFKSKATLTVDKSSRTAYMQLSSLTSGDSAVYYCARRDFITTSGFAYWGQGTLVTVSA
VL: DIVMTQTTASLSTSVGETVTITCRASGNLHSYLTWYQQKQGKSPQLLVYNAKTLADGVPSRFSGSGSGTQYSLKIDSLQPEDFGSYYCQHFWTTPFTFGSGTKLEIK
B2: monoclonal antibody 15B8 (antibody, V domains shown)
VH: QVQLEQSGTELVKPGASVKLSCKASGYTFTSYWMHWVKQRPGQGLEWIGNINPSNGGTNYNEKFKSKATLTVDKSSSTAYMQLSSLTSEDSAIYYCARRNNYYASSPFAYWGQGTLVSVSA
VL: B1 VL with T8P, T13A, L29I, S31N, T34A, D76N, T93S
B3: monoclonal antibody 13H1 (antibody, V domains shown)
VH: QVQLQQSGTELVKPGASVKLSCKASGHTFTSYWMHWVKQRPGQGLEWIGNINPSNGGTNYNEKFKSKATLTVDKSSSTAYMQLSSLTSEDSAVYYCARRGYYGSSSYWSFDVWGTGTTVTVSS
VL: DIVMTQTPKSMSMSVGERVTLSCKASENVGTYVSWYQQKPEQSPKVLIYGASNRFTGVPDRFTGSGSATDFTLTISSVQTEDLADYHCGQSYSYPLTFGAGTKLELK
B4: monoclonal antibody 8D10 (antibody, V domains shown)
VH: QVQLQESGTELVKPGASVKLSCKASGYTFTSYWMHWMKQRPGQGLEWIGNINPSNGGTNYNEKFKNKATLTVDKSSSTAYMQLSSLTSEDSAVYYCARRDYYYGSSYGFDVWGTGTTVTVSS
VL: DIVMTQSPASQSASLGESVTITCLASQTIGTWLAWYQQKPGKSPQFLIYAATSLADGVPSRFSGSGSGTKFSFKISSLQAEDFVSYYCQQLYSTPFTFGGGTKLEIK

Each binder was assayed against recombinant CD30-GST fusion protein (human) (UniProt P28908) (assay: ELISA, plates coated with recombinant CD30-GST fusion protein).

binding	Binder
binds	B1
binds	B2
binds	B3
binds	B4
